Measured values: ChEMBL document CHEMBL1148436, “Structural determinants for high 5-HT(2A) receptor affinity of spiro[9,10-dihydroanthracene]-9,3(')-pyrrolidine (SpAMDA)” (Bioorg Med Chem Lett, 2004)

Molecular target: Sodium-dependent noradrenaline transporter (Homo sapiens, UniProt P23975)
Assay: Binding affinity towards Norepinephrine transporter using [3H]nisoxitine as radioligand

Ki: 290 nM
Compound: CN1CCC(=C2c3ccccc3C=Cc3ccccc32)CC1 [CYPROHEPTADINE]
